The labels stand for the following.
T1: FLAG-RBM39 (human) (UniProt Q14498)
T1 sequence: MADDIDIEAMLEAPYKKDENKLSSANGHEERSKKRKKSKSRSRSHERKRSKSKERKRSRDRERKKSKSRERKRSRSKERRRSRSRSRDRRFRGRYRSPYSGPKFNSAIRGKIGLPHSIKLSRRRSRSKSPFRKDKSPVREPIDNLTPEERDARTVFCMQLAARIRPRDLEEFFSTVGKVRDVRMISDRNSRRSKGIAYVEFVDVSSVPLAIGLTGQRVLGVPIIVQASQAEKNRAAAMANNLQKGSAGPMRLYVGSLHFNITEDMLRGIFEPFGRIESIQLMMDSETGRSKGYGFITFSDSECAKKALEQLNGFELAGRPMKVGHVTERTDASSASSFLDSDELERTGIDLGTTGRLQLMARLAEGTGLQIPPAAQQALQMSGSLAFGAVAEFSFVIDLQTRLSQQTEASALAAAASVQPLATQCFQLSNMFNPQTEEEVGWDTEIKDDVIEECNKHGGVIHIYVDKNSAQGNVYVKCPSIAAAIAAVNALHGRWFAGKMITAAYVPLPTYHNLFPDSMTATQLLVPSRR

Amino acid sequences for entries named in this document (tags omitted).
UniProt Q14145: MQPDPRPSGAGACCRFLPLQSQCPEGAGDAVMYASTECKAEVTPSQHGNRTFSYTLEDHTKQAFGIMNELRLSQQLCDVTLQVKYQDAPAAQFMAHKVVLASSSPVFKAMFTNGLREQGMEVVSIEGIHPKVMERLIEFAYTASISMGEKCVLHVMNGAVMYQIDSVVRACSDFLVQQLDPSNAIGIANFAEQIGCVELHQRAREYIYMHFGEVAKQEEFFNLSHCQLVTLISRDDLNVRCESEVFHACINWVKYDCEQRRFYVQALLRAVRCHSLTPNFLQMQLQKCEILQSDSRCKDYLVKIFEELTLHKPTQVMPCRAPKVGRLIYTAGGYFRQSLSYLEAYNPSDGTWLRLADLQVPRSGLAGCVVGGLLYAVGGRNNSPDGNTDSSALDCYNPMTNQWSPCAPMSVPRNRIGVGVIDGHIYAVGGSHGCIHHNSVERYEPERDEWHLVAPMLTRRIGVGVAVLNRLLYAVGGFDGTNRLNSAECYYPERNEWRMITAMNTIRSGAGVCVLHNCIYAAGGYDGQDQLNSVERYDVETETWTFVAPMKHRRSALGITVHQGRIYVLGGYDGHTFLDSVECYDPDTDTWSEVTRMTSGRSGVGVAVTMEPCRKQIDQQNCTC
UniProt Q93008: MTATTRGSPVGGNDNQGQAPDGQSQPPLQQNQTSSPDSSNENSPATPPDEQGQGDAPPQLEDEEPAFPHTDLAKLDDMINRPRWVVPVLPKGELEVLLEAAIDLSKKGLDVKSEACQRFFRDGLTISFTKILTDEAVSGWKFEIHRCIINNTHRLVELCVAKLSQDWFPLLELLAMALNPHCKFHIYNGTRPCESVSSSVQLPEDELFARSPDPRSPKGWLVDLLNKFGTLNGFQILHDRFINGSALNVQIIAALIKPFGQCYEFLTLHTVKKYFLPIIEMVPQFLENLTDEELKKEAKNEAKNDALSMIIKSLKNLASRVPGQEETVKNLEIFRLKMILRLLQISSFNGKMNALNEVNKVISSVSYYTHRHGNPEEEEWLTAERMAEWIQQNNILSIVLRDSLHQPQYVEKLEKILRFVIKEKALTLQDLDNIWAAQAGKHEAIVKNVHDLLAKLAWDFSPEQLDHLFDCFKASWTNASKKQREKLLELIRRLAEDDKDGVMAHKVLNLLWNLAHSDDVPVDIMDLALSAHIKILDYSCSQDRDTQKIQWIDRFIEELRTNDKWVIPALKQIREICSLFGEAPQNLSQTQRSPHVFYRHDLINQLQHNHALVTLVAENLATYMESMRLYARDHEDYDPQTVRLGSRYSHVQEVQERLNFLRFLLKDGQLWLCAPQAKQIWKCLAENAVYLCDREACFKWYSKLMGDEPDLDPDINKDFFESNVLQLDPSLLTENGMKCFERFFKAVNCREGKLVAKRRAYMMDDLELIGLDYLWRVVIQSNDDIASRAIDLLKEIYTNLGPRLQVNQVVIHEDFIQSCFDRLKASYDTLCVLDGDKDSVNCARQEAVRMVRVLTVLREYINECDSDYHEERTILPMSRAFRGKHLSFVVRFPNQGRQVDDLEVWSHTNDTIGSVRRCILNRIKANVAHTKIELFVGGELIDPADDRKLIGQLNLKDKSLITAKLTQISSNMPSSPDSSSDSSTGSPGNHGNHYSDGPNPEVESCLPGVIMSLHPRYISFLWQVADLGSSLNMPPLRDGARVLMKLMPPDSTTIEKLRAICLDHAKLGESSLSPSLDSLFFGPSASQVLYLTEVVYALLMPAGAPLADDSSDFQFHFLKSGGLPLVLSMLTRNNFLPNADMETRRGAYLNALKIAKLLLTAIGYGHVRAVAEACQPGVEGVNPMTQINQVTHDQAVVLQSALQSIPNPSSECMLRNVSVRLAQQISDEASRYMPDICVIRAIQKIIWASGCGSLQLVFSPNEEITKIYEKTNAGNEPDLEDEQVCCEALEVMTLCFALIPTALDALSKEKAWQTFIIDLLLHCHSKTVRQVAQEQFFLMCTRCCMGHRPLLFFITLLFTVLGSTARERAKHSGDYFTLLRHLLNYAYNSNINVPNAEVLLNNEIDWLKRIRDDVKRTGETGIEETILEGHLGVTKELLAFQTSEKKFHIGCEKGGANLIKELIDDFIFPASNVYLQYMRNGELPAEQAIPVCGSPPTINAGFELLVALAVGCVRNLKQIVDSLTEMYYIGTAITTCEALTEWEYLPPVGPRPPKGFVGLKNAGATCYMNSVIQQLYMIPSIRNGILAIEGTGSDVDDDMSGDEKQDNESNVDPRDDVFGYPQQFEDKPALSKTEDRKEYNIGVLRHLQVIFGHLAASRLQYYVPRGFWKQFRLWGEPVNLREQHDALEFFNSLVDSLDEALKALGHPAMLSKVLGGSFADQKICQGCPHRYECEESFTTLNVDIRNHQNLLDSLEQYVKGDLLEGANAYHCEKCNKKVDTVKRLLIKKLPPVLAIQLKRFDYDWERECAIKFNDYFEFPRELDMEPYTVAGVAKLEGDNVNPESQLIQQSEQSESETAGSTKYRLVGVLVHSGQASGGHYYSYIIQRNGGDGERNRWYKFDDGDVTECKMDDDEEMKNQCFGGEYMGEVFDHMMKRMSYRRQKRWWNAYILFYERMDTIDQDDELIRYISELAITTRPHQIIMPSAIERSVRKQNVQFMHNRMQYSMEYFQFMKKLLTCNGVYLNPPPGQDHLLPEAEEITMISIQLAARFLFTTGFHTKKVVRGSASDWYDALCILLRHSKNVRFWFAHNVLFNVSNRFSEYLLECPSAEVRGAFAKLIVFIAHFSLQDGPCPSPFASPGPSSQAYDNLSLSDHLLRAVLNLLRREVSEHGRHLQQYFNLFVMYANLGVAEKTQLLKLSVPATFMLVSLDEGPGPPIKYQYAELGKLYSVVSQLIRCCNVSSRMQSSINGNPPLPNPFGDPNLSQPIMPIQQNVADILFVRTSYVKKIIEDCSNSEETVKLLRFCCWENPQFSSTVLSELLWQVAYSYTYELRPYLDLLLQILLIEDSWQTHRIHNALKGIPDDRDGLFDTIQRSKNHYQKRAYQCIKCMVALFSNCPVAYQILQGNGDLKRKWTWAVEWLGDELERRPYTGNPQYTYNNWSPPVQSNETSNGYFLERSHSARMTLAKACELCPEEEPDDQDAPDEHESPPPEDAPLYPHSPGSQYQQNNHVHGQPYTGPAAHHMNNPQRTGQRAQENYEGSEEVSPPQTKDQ
UniProt O75533: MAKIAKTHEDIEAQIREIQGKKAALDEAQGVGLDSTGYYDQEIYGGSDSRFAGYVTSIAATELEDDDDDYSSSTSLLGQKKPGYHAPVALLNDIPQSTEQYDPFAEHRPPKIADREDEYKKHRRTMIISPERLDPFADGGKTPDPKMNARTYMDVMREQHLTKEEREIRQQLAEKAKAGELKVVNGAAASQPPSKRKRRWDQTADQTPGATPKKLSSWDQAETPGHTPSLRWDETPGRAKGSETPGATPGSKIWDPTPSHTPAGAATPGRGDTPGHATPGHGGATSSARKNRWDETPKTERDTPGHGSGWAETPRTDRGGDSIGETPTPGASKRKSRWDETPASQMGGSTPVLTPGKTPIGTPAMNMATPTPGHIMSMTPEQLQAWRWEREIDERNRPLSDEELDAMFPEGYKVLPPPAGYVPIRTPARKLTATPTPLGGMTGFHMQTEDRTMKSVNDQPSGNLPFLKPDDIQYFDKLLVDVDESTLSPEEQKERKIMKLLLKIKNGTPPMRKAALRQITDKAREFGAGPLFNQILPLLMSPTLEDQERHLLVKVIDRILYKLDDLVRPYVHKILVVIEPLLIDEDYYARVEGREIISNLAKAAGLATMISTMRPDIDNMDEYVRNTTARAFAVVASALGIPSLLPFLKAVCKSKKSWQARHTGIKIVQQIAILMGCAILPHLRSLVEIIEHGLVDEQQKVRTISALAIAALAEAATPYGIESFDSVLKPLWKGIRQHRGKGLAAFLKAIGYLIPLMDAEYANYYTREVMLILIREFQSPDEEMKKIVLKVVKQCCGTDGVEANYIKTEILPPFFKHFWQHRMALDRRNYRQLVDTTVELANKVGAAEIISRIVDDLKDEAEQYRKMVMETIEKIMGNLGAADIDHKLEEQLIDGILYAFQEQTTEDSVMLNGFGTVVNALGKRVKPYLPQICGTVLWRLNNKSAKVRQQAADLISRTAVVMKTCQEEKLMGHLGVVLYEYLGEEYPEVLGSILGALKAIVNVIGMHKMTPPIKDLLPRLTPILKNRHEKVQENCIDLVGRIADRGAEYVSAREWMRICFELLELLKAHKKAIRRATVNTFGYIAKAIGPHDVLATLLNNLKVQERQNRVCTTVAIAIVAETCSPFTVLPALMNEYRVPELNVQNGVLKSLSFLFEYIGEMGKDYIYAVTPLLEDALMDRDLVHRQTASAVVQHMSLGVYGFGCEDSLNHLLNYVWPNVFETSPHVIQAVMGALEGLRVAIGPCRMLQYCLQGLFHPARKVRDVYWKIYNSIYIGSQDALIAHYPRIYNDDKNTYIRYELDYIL
UniProt P05412: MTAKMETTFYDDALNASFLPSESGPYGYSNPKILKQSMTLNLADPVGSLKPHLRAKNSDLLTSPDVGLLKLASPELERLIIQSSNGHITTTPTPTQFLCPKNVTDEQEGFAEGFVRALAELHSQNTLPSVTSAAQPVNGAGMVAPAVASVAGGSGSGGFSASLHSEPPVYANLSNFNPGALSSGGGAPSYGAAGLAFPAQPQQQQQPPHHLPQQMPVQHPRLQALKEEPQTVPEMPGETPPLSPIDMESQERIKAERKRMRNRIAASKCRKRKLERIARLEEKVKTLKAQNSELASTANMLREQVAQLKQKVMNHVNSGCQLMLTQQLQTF
UniProt Q03936: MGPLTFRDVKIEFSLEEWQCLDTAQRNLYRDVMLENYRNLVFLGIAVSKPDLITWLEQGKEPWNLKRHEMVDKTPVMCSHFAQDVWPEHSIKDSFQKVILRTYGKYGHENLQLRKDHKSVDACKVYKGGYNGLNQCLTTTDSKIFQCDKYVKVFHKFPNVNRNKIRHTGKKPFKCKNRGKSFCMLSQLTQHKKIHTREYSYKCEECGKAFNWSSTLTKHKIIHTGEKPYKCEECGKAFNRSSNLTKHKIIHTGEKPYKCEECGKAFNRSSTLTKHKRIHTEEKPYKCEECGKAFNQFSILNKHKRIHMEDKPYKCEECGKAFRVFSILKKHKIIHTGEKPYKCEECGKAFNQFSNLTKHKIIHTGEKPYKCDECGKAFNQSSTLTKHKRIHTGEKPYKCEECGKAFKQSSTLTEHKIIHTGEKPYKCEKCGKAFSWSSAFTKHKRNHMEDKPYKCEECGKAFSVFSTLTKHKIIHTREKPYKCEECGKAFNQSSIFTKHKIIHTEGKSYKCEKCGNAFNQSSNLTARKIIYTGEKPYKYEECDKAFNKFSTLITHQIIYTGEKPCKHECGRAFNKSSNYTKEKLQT
UniProt Q8NB50: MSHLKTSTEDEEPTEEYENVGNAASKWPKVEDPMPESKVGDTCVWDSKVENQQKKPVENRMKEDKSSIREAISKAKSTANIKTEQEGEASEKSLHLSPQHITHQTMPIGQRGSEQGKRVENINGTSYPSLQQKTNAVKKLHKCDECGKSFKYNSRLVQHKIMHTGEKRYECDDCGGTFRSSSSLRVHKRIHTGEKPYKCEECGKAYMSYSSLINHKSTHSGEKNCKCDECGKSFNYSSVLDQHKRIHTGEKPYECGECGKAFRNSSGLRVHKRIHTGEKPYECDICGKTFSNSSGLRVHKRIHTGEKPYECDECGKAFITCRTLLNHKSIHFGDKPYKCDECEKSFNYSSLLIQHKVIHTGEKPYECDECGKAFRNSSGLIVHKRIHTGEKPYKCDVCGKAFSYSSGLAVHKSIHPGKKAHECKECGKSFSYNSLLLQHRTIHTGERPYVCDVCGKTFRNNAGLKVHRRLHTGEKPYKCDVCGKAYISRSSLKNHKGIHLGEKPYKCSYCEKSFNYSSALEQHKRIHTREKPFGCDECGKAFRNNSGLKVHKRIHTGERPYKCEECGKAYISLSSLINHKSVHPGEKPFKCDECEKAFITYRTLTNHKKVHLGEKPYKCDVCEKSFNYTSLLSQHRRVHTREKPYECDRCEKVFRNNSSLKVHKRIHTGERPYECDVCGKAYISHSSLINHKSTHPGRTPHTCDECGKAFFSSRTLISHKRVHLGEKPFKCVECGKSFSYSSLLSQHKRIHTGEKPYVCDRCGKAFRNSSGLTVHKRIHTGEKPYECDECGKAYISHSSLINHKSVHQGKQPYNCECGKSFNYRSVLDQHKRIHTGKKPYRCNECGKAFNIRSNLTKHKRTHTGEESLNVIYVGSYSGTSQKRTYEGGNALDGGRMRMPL

B1: endogenous USP39 (enzyme, UniProt Q53GS9 1-565)
chain: MSGRSKRESRGSTRGKRESESRGSSGRVKRERDREREPEAASSRGSPVRVKREFEPASAREAPASVVPFVRVKREREVDEDSEPEREVRAKNGRVDSEDRRSRHCPYLDTINRSVLDFDFEKLCSISLSHINAYACLVCGKYFQGRGLKSHAYIHSVQFSHHVFLNLHTLKFYCLPDNYEIIDSSLEDITYVLKPTFTKQQIANLDKQAKLSRAYDGTTYLPGIVGLNNIKANDYANAVLQALSNVPPLRNYFLEEDNYKNIKRPPGDIMFLLVQRFGELMRKLWNPRNFKAHVSPHEMLQAVVLCSKKTFQITKQGDGVDFLSWFLNALHSALGGTKKKKKTIVTDVFQGSMRIFTKKLPHPDLPAEEKEQLLHNDEYQETMVESTFMYLTLDLPTAPLYKDEKEQLIIPQVPLFNILAKFNGITEKEYKTYKENFLKRFQLTKLPPYLIFCIKRFTKNNFFVEKNPTIVNFPITNVDLREYLSEEVQAVHKNTTYDLIANIVHDGKPSEGSYRIHVLHHGTGKWYELQDLQVTDILPQMITLSEAYIQIWKRRDNDETNQQGA
B2: MID1 (enzyme, UniProt O15344 1-667)
chain: METLESELTCPICLELFEDPLLLPCAHSLCFNCAHRILVSHCATNESVESITAFQCPTCRHVITLSQRGLDGLKRNVTLQNIIDRFQKASVSGPNSPSETRRERAFDANTMTSAEKVLCQFCDQDPAQDAVKTCVTCEVSYCDECLKATHPNKKPFTGHRLIEPIPDSHIRGLMCLEHEDEKVNMYCVTDDQLICALCKLVGRHRDHQVAALSERYDKLKQNLESNLTNLIKRNTELETLLAKLIQTCQHVEVNASRQEAKLTEECDLLIEIIQQRRQIIGTKIKEGKVMRLRKLAQQIANCKQCIERSASLISQAEHSLKENDHARFLQTAKNITERVSMATASSQVLIPEINLNDTFDTFALDFSREKKLLECLDYLTAPNPPTIREELCTASYDTITVHWTSDDEFSVVSYELQYTIFTGQANVVSLCNSADSWMIVPNIKQNHYTVHGLQSGTKYIFMVKAINQAGSRSSEPGKLKTNSQPFKLDPKSAHRKLKVSHDNLTVERDESSSKKSHTPERFTSQGSYGVAGNVFIDSGRHYWEVVISGSTWYAIGLAYKSAPKHEWIGKNSASWALCRCNNNWVVRHNSKEIPIEPAPHLRRVGILLDYDNGSIAFYDALNSIHLYTFDVAFAQPVCPTFTVWNKCLTIITGLPIPDHLDCTEQLP
B3: USP42 (enzyme, UniProt Q9H9J4 1-1324)
chain: MTIVDKASESSDPSAYQNQPGSSEAVSPGDMDAGSASWGAVSSLNDVSNHTLSLGPVPGAVVYSSSSVPDKSKPSPQKDQALGDGIAPPQKVLFPSEKICLKWQQTHRVGAGLQNLGNTCFANAALQCLTYTPPLANYMLSHEHSKTCHAEGFCMMCTMQAHITQALSNPGDVIKPMFVINEMRRIARHFRFGNQEDAHEFLQYTVDAMQKACLNGSNKLDRHTQATTLVCQIFGGYLRSRVKCLNCKGVSDTFDPYLDITLEIKAAQSVNKALEQFVKPEQLDGENSYKCSKCKKMVPASKRFTIHRSSNVLTLSLKRFANFTGGKIAKDVKYPEYLDIRPYMSQPNGEPIVYVLYAVLVHTGFNCHAGHYFCYIKASNGLWYQMNDSIVSTSDIRSVLSQQAYVLFYIRSHDVKNGGELTHPTHSPGQSSPRPVISQRVVTNKQAAPGFIGPQLPSHMIKNPPHLNGTGPLKDTPSSSMSSPNGNSSVNRASPVNASASVQNWSVNRSSVIPEHPKKQKITISIHNKLPVRQCQSQPNLHSNSLENPTKPVPSSTITNSAVQSTSNASTMSVSSKVTKPIPRSESCSQPVMNGKSKLNSSVLVPYGAESSEDSDEESKGLGKENGIGTIVSSHSPGQDAEDEEATPHELQEPMTLNGANSADSDSDPKENGLAPDGASCQGQPALHSENPFAKANGLPGKLMPAPLLSLPEDKILETFRLSNKLKGSTDEMSAPGAERGPPEDRDAEPQPGSPAAESLEEPDAAAGLSSTKKAPPPRDPGTPATKEGAWEAMAVAPEEPPPSAGEDIVGDTAPPDLCDPGSLTGDASPLSQDAKGMIAEGPRDSALAEAPEGLSPAPPARSEEPCEQPLLVHPSGDHARDAQDPSQSLGAPEAAERPPAPVLDMAPAGHPEGDAEPSPGERVEDAAAPKAPGPSPAKEKIGSLRKVDRGHYRSRRERSSSGEPARESRSKTEGHRHRRRRTCPRERDRQDRHAPEHHPGHGDRLSPGERRSLGRCSHHHSRHRSGVELDWVRHHYTEGERGWGREKFYPDRPRWDRCRYYHDRYALYAARDWKPFHGGREHERAGLHERPHKDHNRGRRGCEPARERERHRPSSPRAGAPHALAPHPDRFSHDRTALVAGDNCNLSDRFHEHENGKSRKRRHDSVENSDSHVEKKARRSEQKDPLEEPKAKKHKKSKKKKKSKDKHRDRDSRHQQDSDLSAACSDADLHRHKKKKKKKKRHSRKSEDFVKDSELHLPRVTSLETVAQFRRAQGGFPLSGGPPLEGVGPFREKTKHLRMESRDDRCRLFEYGQGKRRYLELGR
B4: USP36 (enzyme, UniProt Q9P275 1-1123)
chain: MPIVDKLKEALKPGRKDSADDGELGKLLASSAKKVLLQKIEFEPASKSFSYQLEALKSKYVLLNPKTEGASRHKSGDDPPARRQGSEHTYESCGDGVPAPQKVLFPTERLSLRWERVFRVGAGLHNLGNTCFLNATIQCLTYTPPLANYLLSKEHARSCHQGSFCMLCVMQNHIVQAFANSGNAIKPVSFIRDLKKIARHFRFGNQEDAHEFLRYTIDAMQKACLNGCAKLDRQTQATTLVHQIFGGYLRSRVKCSVCKSVSDTYDPYLDVALEIRQAANIVRALELFVKADVLSGENAYMCAKCKKKVPASKRFTIHRTSNVLTLSLKRFANFSGGKITKDVGYPEFLNIRPYMSQNNGDPVMYGLYAVLVHSGYSCHAGHYYCYVKASNGQWYQMNDSLVHSSNVKVVLNQQAYVLFYLRIPGSKKSPEGLISRTGSSSLPGRPSVIPDHSKKNIGNGIISSPLTGKRQDSGTMKKPHTTEEIGVPISRNGSTLGLKSQNGCIPPKLPSGSPSPKLSQTPTHMPTILDDPGKKVKKPAPPQHFSPRTAQGLPGTSNSNSSRSGSQRQGSWDSRDVVLSTSPKLLATATANGHGLKGNDESAGLDRRGSSSSSPEHSASSDSTKAPQTPRSGAAHLCDSQETNCSTAGHSKTPPSGADSKTVKLKSPVLSNTTTEPASTMSPPPAKKLALSAKKASTLWRATGNDLRPPPPSPSSDLTHPMKTSHPVVASTWPVHRARAVSPAPQSSSRLQPPFSPHPTLLSSTPKPPGTSEPRSCSSISTALPQVNEDLVSLPHQLPEASEPPQSPSEKRKKTFVGEPQRLGSETRLPQHIREATAAPHGKRKRKKKKRPEDTAASALQEGQTQRQPGSPMYRREGQAQLPAVRRQEDGTQPQVNGQQVGCVTDGHHASSRKRRRKGAEGLGEEGGLHQDPLRHSCSPMGDGDPEAMEESPRKKKKKKRKQETQRAVEEDGHLKCPRSAKPQDAVVPESSSCAPSANGWCPGDRMGLSQAPPVSWNGERESDVVQELLKYSSDKAYGRKVLTWDGKMSAVSQDAIEDSRQARTETVVDDWDEEFDRGKEKKIKKFKREKRRNFNAFQKLQTRRNFWSVTHPAKAASLSYRR

No constants are given. Whether binding was seen depends on the method and setting. Binding seen in cells or lysates may run through a third protein. Here binding means that the protein was enriched with, or labelled near, the bait; the list need not be complete. Tags and fused reporters may be left off the sequences shown.

The target in this test is T1, FLAG-RBM39 (human). The experiment in a line: affinity purification with mass spectrometry; HEK293T transfected with pcDNA3.1 or FLAG-RBM39 for 48 h, lysed in modified radioimmunoprecipitation assay buffer; anti-FLAG affinity gel; SDS-PAGE, in-gel trypsin digest, label-free quantification, three biological replicates.
For “MARK2 (from UniProt Q7KZI7 1-788) (enzyme)”, the binding entry was “binds”. Then KEAP1 (from UniProt Q14145 1-624), with “binds”. As for “AURKB (from UniProt Q96GD4 1-344) (enzyme)”, the binding result is “binds”.

On to cullin 4B (from UniProt Q13620 1-913), for which the binding entry is recorded as “binds”. As to “USP9X (from UniProt Q93008 1-2554) (enzyme)”, the binding entry is reported as “binds”. Then BRD7 (from UniProt Q9NPI1 1-651), with “binds”; and “DNA damage-binding protein 1 (DDB1) (from UniProt Q16531 1-1140)”, with “binds”; and “USP7 (from UniProt Q93009 1-1102) (enzyme)”, with “binds”. With cullin 4A (from UniProt Q13619 1-759), the binding result is “binds”.

For “splicing factor 3B subunit 1 (SF3B1) (from UniProt O75533 1-1304)”, the binding result was “binds”. The entry for JUN (from UniProt P05412 1-331) is “binds”; for “KMT2A (from UniProt Q03164 1-3969) (enzyme)” it is “binds”. The entry for “BAP1 (from UniProt Q92560 1-729) (enzyme)” is “binds”. The entry for “USP24 (from UniProt Q9UPU5 1-2620) (enzyme)” is “binds”.

With ZNF92 (from UniProt Q03936 1-586), the binding result is reported as “binds”. Then “TBK1 (from UniProt Q9UHD2 1-729) (enzyme)”, with “binds”; and “E3 ubiquitin/ISG15 ligase TRIM25 (from UniProt Q14258 1-630) (enzyme)”, with “binds”. The entry for “HUWE1 (from UniProt Q7Z6Z7 1-4374) (enzyme)” is “binds”; for ZFP62 (from UniProt Q8NB50 1-900) it is “binds”. Then B1, with “binds”.

B2: the binding result was “binds”. The entry for B3 is “binds”. The entry for B4 is “binds”.

Source of the values: article PMC11490714.
